These results are taken from article PMC7819943, “Rice protein-binding microarrays: a tool to detect cis-acting elements near promoter regions in rice”.

Amino acid sequences for entries named in this document (tags omitted).
UniProt Q0JBA9, entry or part of it: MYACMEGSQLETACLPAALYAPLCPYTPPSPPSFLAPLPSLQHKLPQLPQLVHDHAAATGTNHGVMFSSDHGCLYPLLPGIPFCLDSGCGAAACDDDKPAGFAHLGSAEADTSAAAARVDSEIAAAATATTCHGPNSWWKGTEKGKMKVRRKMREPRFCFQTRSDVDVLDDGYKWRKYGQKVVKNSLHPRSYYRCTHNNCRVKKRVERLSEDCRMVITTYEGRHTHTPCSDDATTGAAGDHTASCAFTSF

Some of the results follow.

This assay deals with OsWRKY34 (Oryza sativa, UniProt Q0JBA9 1-250). Description: protein-binding microarray (RPBM); PBS, 2% BSA, 51.3 ng/ul salmon testes DNA, 50 uM zinc acetate, 200 nM TF, 25 C, 1 h; high values mean tight binding. The conditions noted are these: protein: recombinant; tags: N-terminal polyhistidine and DsRed monomer fusion (pET32a); label: CyDye5-dUTP incorporated in the synthesized complementary strand; 3' TTTTT single-stranded linker to array surface; dsDNA, one strand shown. In a few lines: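 Per-feature fluorescence intensity (arbitrary units), read on an Axon 4000B scanner, is the binding signal. Transcription factors carrying an N-terminal polyhistidine tag and DsRed fusion were expressed in E. coli BL21-CodonPlus and purified on Ni–NTA. A custom Agilent array, made double-stranded by primer extension with Cy5-dUTP and blocked with 2% BSA, was incubated with 200 nM protein in PBS, 2% BSA, salmon testes DNA and 50 µM zinc acetate at 25 °C for 1 h and then washed.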
For “CGAAATTACCAAGTTACCCTCGCCATTTTGACGCCTCCGTCGGAGTCACCTAGTGCAG”, the binding signal is 8620 fluorescence intensity (a.u.).

With “CATGTGAGTCCATGATAATCTTTTGGCCATTTTGTGCACCCGGAGTCACCTAGTGCAG”, the binding signal is 8130 fluorescence intensity (a.u.). In the case of “GCATTGTTTTGTTTTGTTTTTAATTTTGAAGCGAAAAGAGCGGAGTCACCTAGTGCAG” it was 8790 fluorescence intensity (a.u.). In the case of “TCCCTCGTTCGCCGCGCGCACGCTTCTCGAACTGCTAAACCGGAGTCACCTAGTGCAG” it was 8370 ± 238 fluorescence intensity (a.u.). The result for “TATTGGTATGTGTGAGATGTATGAAAAATAAATTTATTTTCGGAGTCACCTAGTGCAG” reads 8650 fluorescence intensity (a.u.); that for “CGCTTAGCCAACGCCCCGCCGACTTGGCCGCGCTCTCGCCCGGAGTCACCTAGTGCAG”, 8760 fluorescence intensity (a.u.).

With “TGCATCTTATCCTTCAGTTAGTCAACGGTAGTTGGCAATACGGAGTCACCTAGTGCAG”, the binding signal is 9130 fluorescence intensity (a.u.). In the case of “CTTTTGCAGAATACTTCTTTCTTGCCTCAATTATCATTAACGGAGTCACCTAGTGCAG” it was 10100 fluorescence intensity (a.u.); in that of “CCACGTGTTTATTGCGGTTATTCTGACCTGTTGACCGAAACGGAGTCACCTAGTGCAG”, 9210 fluorescence intensity (a.u.). With “TTATGTTGTTTGTTTTTTTTTTTGCCAACAGAAGGTATCACGGAGTCACCTAGTGCAG”, the binding signal is 8280 fluorescence intensity (a.u.). The result for “CAAATCCTTTCTGTGTCTAACGTTTGACCGTCCGTCTTATCGGAGTCACCTAGTGCAG” reads 11100 fluorescence intensity (a.u.).

For the sequence “ACACCACTCTCCAATTCAATCTAGCTTCGTCTAGGATCCTCGGAGTCACCTAGTGCAG”, the binding signal was 8320 fluorescence intensity (a.u.).

Take “GCCTCTTTTGAGTAAATTTTTGTAGCCATCTGTTGTAATTCGGAGTCACCTAGTGCAG”: the binding signal was 8660 fluorescence intensity (a.u.). In the case of “CGATTCTATTCCTAGGCCGCCCACACTATTGGGCCATCTCCGGAGTCACCTAGTGCAG” it was 8740 fluorescence intensity (a.u.); in that of “TACTACTAGCTGTCTCATGAATCTTATGTTTTCTAGGGTCCGGAGTCACCTAGTGCAG”, 8930 fluorescence intensity (a.u.). In the case of “GATGCTCCTAGTCCTATCCTAGTTCGTCGTCAACTCCGGCCGGAGTCACCTAGTGCAG” it was 8960 fluorescence intensity (a.u.). In the case of “AAACCCGTCCAACCCAACTCCACTCCATCCTCTGCAGCCGCGGAGTCACCTAGTGCAG” it was 9970 fluorescence intensity (a.u.). Regarding “TTGCAGTGGCATCGATCCAATTAACCCATCATCTTATTAGCGGAGTCACCTAGTGCAG”, the binding signal was 8580 fluorescence intensity (a.u.). For the sequence “AACAATGATTTTCCTTTTGACTTTTTTGCCATTGTTCAACCGGAGTCACCTAGTGCAG”, the binding signal is 13300 fluorescence intensity (a.u.). The result for “TTTTTTTCTGTATTTAATACTTCATACATGTATCCAAACACGGAGTCACCTAGTGCAG” reads 8550 fluorescence intensity (a.u.); that for “TGAATTTTTTTACTAACATTTGACCATTTGTTTTATTCAACGGAGTCACCTAGTGCAG”, 8800 fluorescence intensity (a.u.). In the case of “TCCAAGGTCTCCGTCCACTTCATGGATTTTATTTTTTTCACGGAGTCACCTAGTGCAG” it was 11200 fluorescence intensity (a.u.); in that of “ATCATGGACCAGCTCTTTTTCGTTTTCGAGATTCTTTGTCCGGAGTCACCTAGTGCAG”, 13500 fluorescence intensity (a.u.); in that of “GGCCGGCGACGCTGAACGGGGTGGGGTAGTCTGCTATTTACGGAGTCACCTAGTGCAG”, 18000 fluorescence intensity (a.u.).

With “ATTTCGCCTGCTTATGGGTTGTGGGCGCTTGTGCACATATCGGAGTCACCTAGTGCAG”, the binding signal was 13300 fluorescence intensity (a.u.).

Take “GCGATACGACTTGATTCGGCCTCTCTCTCTCCGCGCGCGCCGGAGTCACCTAGTGCAG”: the binding signal is 11400 fluorescence intensity (a.u.).

Regarding “ATGGCCAACCGATGGGATCCATTCTACTTCTACACATATGCGGAGTCACCTAGTGCAG”, the binding signal is 9430 fluorescence intensity (a.u.). The result for “CATTTGTGGTTTGTACATATTTATATAAGTTATTATAAATCGGAGTCACCTAGTGCAG” reads 9060 fluorescence intensity (a.u.); that for “CTACTATCAATCAATCGACTCGTTTTTCATATTGCTTTTACGGAGTCACCTAGTGCAG”, 10500 fluorescence intensity (a.u.); that for “ACAGAATGCTAAATTTCATCATCTTTCGGTGCTATTATTACGGAGTCACCTAGTGCAG”, 8060 fluorescence intensity (a.u.). Consider “TCGTTCGTTTCCATTTTTCCTCGTCCGCTCGCTCTCGTTCCGGAGTCACCTAGTGCAG”, for which the binding signal is 10200 fluorescence intensity (a.u.). The result for “GTGGACTTTTTTCCTTCTCCTTTTCCTTTGTGTTGTTTCGCGGAGTCACCTAGTGCAG” reads 8860 fluorescence intensity (a.u.). The result for “TCGGTTAGTGTACTGTTCAAAGATTACTAAGCTTTGCCTTCGGAGTCACCTAGTGCAG” reads 8560 fluorescence intensity (a.u.); that for “TCGTCTCATTTCTGTATTTGCAGTCGAGAAATCTTCTTCTCGGAGTCACCTAGTGCAG”, 10900 fluorescence intensity (a.u.); that for “TGTTGATTTTTTAAAATATGTTTGACCGTTCGTCTTATTCCGGAGTCACCTAGTGCAG”, 10700 fluorescence intensity (a.u.).

In the case of “CATAATCGTCATTTCGGTTTGCTTTGTCCTAATGTTTTCCCGGAGTCACCTAGTGCAG”, the binding signal was 8880 fluorescence intensity (a.u.). In the case of “ATATTTGACACCGTTGATTTTTTAGCGCATGTCTGAACGTCGGAGTCACCTAGTGCAG” it was 9530 fluorescence intensity (a.u.). The result for “GCTGGTGCAGGCTTCTACCTTCTCTTCTCTCTATCAACACCGGAGTCACCTAGTGCAG” reads 11300 fluorescence intensity (a.u.); that for “TTCTTGAATGATTTGCTAATTGCTACATGTATCCTCTTTCCGGAGTCACCTAGTGCAG”, 9090 fluorescence intensity (a.u.). In the case of “AATAAGACGAACGGTCAAACATGTTTTCAAAAGTCAACGGCGGAGTCACCTAGTGCAG” it was 11100 fluorescence intensity (a.u.); in that of “AGGGGAGTTGATTACAGGGAGTTACAGGGTTCCAAGCTTTCGGAGTCACCTAGTGCAG”, 9460 fluorescence intensity (a.u.). Turning to “AGGCTCTATTGGTTTCTCCTCTGTACATACAGTAGTAGTCCGGAGTCACCTAGTGCAG”, the binding signal is 8640 fluorescence intensity (a.u.).
